Measurements taken from publication PMC12733700.
These are yes or no findings as the source states them, for the method shown. Binding seen in cells or lysates may run through a third protein. Some entries that bind do so weakly or less than the wild type.

By UniProt entry, the sequences of proteins in these tests, tags left out.
UniProt P55264: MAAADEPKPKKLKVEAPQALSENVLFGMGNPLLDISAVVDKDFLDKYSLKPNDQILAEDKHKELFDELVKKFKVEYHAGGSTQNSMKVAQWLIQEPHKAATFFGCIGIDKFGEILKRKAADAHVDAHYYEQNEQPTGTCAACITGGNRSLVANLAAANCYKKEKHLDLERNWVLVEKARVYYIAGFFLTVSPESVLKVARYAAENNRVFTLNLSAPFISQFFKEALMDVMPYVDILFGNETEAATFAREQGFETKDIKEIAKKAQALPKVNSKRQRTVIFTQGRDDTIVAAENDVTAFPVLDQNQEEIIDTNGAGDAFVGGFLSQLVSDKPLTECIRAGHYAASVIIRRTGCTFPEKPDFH
UniProt P10085: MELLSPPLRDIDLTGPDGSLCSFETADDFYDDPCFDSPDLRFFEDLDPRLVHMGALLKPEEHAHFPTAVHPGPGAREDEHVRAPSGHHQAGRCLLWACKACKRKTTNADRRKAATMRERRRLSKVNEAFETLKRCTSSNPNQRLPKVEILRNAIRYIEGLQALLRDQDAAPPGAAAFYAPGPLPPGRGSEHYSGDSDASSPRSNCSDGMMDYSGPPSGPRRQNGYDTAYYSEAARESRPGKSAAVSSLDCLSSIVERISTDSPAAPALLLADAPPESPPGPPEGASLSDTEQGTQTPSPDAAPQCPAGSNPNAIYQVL

How the values were obtained:
[1] = molecular target: T1, 6-phosphofructo-2-kinase/fructose-2,6-biphosphatase 3 (mouse (endogenous in C2C12 and in C57BL/6 tibialis anterior muscle)) (UniProt Q7TS91); test: co-IP; total protein from mouse TA muscles 5 days after cardiotoxin injection in RIPA lysis buffer, precleared with anti-species-specific IgG beads, incubated with PFKFB3 and ADK antibodies for 3 h at 4 °C, then protein A/G agarose beads; Western blotting
T1 sequence: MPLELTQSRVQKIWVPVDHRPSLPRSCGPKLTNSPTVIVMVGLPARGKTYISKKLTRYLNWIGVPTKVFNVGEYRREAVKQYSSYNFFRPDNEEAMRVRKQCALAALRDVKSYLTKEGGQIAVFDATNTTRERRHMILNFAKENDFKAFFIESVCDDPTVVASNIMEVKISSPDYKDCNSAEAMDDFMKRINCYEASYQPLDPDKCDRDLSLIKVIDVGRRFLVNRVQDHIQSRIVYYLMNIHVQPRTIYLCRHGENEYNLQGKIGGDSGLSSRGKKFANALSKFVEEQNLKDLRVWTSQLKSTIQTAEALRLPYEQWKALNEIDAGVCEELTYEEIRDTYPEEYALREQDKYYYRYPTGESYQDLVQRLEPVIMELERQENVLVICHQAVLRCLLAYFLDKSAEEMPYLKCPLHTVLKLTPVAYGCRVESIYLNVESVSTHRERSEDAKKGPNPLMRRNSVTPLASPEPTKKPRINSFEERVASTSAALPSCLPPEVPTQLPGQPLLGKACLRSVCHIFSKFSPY

[2] = molecular target: adenosine kinase (mouse (endogenous in C2C12 and in C57BL/6 tibialis anterior muscle)) (UniProt P55264); test: as above
[3] = molecular target: T1, 6-phosphofructo-2-kinase/fructose-2,6-biphosphatase 3 (mouse (endogenous in C2C12 and in C57BL/6 tibialis anterior muscle)); test: co-IP; total protein from C2C12 cells in RIPA buffer, precleared with anti-species-specific IgG beads, incubated with antibody, then protein A/G agarose beads; Western blotting

Row | binding [3] | Substance | binding [1] | binding [2]
1 |  | MYOD1 (from UniProt P10085 1-318) | binds | no binding
2 | binds | adenosine kinase (from UniProt P55264 1-361) (enzyme) | binds | 
